PubChem BioAssay AID1053208 | Peter MacCallum Cancer Centre | 2014

Test: 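Synthetic lethal interactions between gene loss and doxorubicin in osteosarcoma cells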 (primary screen)
System: mouse osteosarcoma cells, early-passage culture from an engineered mouse model of fibroblastic bone tumour
Reagents: siRNA pool against mouse genes, 40 nM
Time to read-out: about 120 h (48 h before drug, then 72 h with drug)
Treatment: doxorubicin 100 nM for 72 h, roughly 30-40% inhibitory dose
Measured: 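Viability read as ATP luminescence after 72 h of 100 nM doxorubicin or none, duplicate wells averaged, scaled to non-targeting siRNA, then expressed as robust z-scores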
Scale: viability z-score with doxorubicin and doxorubicin viability vs non-targeting: higher = more viable cells under doxorubicin; viability z-score without drug: higher = more viable cells with knock-down alone; z-score of drug to no-drug ratio: higher = less drug sensitisation by knock-down
Hit rule: 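a pool counts as active when its viability z-score with doxorubicin is -2 or below and its z-score without drug lies between -2 and 2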
The whole screen tested about 17,000 reagents; below is a random part of them. Of all reagents, 788 (4.7%) are marked active. 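Calls rest on z-score classes alone; an extra cut-off of viability at most 70% of control was not applied to them.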 Unmarked entries are inactive. Some reagents were tested in more than one well and are listed for each.

| gene symbol | combined z-score class | viability z-score with doxorubicin | viability z-score without drug | z-score of drug to no-drug ratio | doxorubicin viability vs non-targeting |
| --- | --- | --- | --- | --- | --- |
| Pi4k2a (phosphatidylinositol 4-kinase type 2 alpha) | no change with or without drug | 0 | -1.85 | 1.57 | 0.94 |
| Ugt2b37 (UDP glucuronosyltransferase 2 family, polypeptide B37) | no change with or without drug | -0.22 | -0.84 | 0.45 | 0.92 |
| Vmn1r65 (vomeronasal 1 receptor 65) | no change with or without drug | -0.22 | 0.51 | -0.45 | 0.92 |
| Cbr1 (carbonyl reductase 1) | no change with or without drug | -0.9 | 0.67 | -1.24 | 0.86 |
| Baz2a (bromodomain adjacent to zinc finger domain, 2A) | no change with or without drug | 0 | -1.18 | 1.01 | 0.94 |
| Mpnd (MPN domain containing) | no change with or without drug | -1.8 | -1.52 | -0.79 | 0.78 |
| Rxrg (retinoid X receptor gamma) | no change with or without drug | -0.11 | 0.34 | -0.22 | 0.93 |
| Usp44 (ubiquitin specific peptidase 44) | high cell count without drug only | 0.67 | 2.87 | -1.01 | 1 |
| AY036118 (cDNA sequence AY036118) | no change with or without drug | 0.11 | -0.67 | 0.67 | 0.95 |
| Itga3 (integrin alpha 3) | no change with or without drug | -0.67 | -1.01 | 0.11 | 0.88 |
| Dis3l2 (DIS3 like 3'-5' exoribonuclease 2) | high cell count without drug only | 1.57 | 2.19 | 0.22 | 1.08 |
| Upb1 (ureidopropionase, beta) | no change with or without drug | -0.22 | 1.01 | -0.79 | 0.92 |
| Pde7b (phosphodiesterase 7B) | no change with or without drug | 0.34 | -0.84 | 1.12 | 0.97 |
| Dgkg (diacylglycerol kinase, gamma) | no change with or without drug | 0.22 | 0.17 | 0.22 | 0.96 |
| Grk5 (G protein-coupled receptor kinase 5) | no change with or without drug | 1.12 | 1.85 | 0 | 1.04 |
| Grk5 (G protein-coupled receptor kinase 5) | no change with or without drug | -1.12 | -0.84 | -0.56 | 0.84 |
| Pipox (pipecolic acid oxidase) | low cell count with doxorubicin only (active) | -2.02 | -1.85 | -0.9 | 0.76 |
| Slx4 (SLX4 structure-specific endonuclease subunit) | no change with or without drug | 0.45 | -0.84 | 1.24 | 0.98 |
| Zfp933 (zinc finger protein 933) | no change with or without drug | -0.22 | 1.52 | -1.12 | 0.92 |
| Coq6 (coenzyme Q6 monooxygenase) | no change with or without drug | 0.34 | 0.51 | 0.11 | 0.97 |
| Cyp4f18 (cytochrome P450, family 4, subfamily f, polypeptide 18) | no change with or without drug | 0.67 | -0.34 | 1.12 | 1 |
| Cdv3 | low cell count with doxorubicin only (active) | -2.25 | -1.35 | -1.46 | 0.74 |
| Kif27 (kinesin family member 27) | high cell count without drug only | -1.8 | 2.36 | -2.92 | 0.78 |
| Rnf222 (ring finger protein 222) | high cell count with doxorubicin only | 3.48 | 1.69 | 2.36 | 1.25 |
| Pex11a (peroxisomal biogenesis factor 11 alpha) | no change with or without drug | 0.11 | 0.84 | -0.34 | 0.95 |
| Or13a1 (olfactory receptor family 13 subfamily A member 1) | no change with or without drug | 1.57 | 1.35 | 0.79 | 1.08 |
| Prl3a1 (prolactin family 3, subfamily a, member 1) | no change with or without drug | 1.01 | 0.84 | 0.56 | 1.03 |
| Cytl1 (cytokine-like 1) | no change with or without drug | -0.34 | 0.17 | -0.34 | 0.91 |
| Ccdc71l (coiled-coil domain containing 71 like) | no change with or without drug | -0.45 | 0.51 | -0.67 | 0.9 |
| Adgra3 (adhesion G protein-coupled receptor A3) | no change with or without drug | 0.45 | -1.18 | 1.46 | 0.98 |
| Mep1b (meprin 1 beta) | no change with or without drug | -0.34 | 0.17 | -0.34 | 0.91 |
| Stag1 (STAG1 cohesin complex component) | no change with or without drug | 1.12 | 1.18 | 0.45 | 1.04 |
| Vmn1r225 (vomeronasal 1 receptor 225) | no change with or without drug | -0.34 | -0.84 | 0.34 | 0.91 |
| Stc1 (stanniocalcin 1) | no change with or without drug | 0.79 | 1.52 | -0.11 | 1.01 |
| Dtwd1 (DTW domain containing 1) | no change with or without drug | -0.56 | 0 | -0.45 | 0.89 |
| Rhob (ras homolog family member B) | no change with or without drug | 1.12 | 1.18 | 0.45 | 1.04 |
| Grep1 (glycine rich extracellular protein 1) | no change with or without drug | 1.57 | 1.18 | 0.9 | 1.08 |
| Cdca7l (cell division cycle associated 7 like) | no change with or without drug | -0.9 | -0.84 | -0.22 | 0.86 |
| Polr1f (RNA polymerase I subunit F) | low cell count without drug only | -0.22 | -3.04 | 2.36 | 0.92 |
| Entpd1 (ectonucleoside triphosphate diphosphohydrolase 1) | no change with or without drug | -1.57 | -0.67 | -1.12 | 0.8 |
| Sgpl1 (sphingosine phosphate lyase 1) | no change with or without drug | 0 | 0.17 | 0 | 0.94 |
| Cyp2d10 (cytochrome P450, family 2, subfamily d, polypeptide 10) | no change with or without drug | -0.22 | 0.34 | -0.34 | 0.92 |
| Ndufa8 (NADH:ubiquinone oxidoreductase subunit A8) | low cell count with and without drug | -3.37 | -2.19 | -2.25 | 0.64 |
| Tfe3 (transcription factor E3) | high cell count without drug only | 0.9 | 2.02 | -0.34 | 1.02 |
| Ghsr (growth hormone secretagogue receptor) | no change with or without drug | -0.79 | -0.17 | -0.56 | 0.87 |
| Or6c216 (olfactory receptor family 6 subfamily C member 216) | low cell count with doxorubicin only (active) | -2.36 | -0.84 | -1.91 | 0.73 |
| Scly (selenocysteine lyase) | no change with or without drug | -1.69 | -0.67 | -1.24 | 0.79 |
| Ca14 (carbonic anhydrase 14) | no change with or without drug | -1.35 | 0.51 | -1.57 | 0.82 |
| Fzd5 (frizzled class receptor 5) | no change with or without drug | -1.24 | 1.35 | -1.91 | 0.83 |
| Pbld2 (phenazine biosynthesis-like protein domain containing 2) | no change with or without drug | 1.57 | 0.17 | 1.69 | 1.08 |
